Paper PMC3865146
These are yes or no findings as the source states them, for the method shown. Binding seen in cells or lysates may run through a third protein. Some results given as binding are weak or reduced against the parent protein; the word gives no strength.

Sequences of proteins named here, by UniProt entry; tags and fusion partners are left off. Residues count along the entry.
UniProt P02751, residues 32-2477: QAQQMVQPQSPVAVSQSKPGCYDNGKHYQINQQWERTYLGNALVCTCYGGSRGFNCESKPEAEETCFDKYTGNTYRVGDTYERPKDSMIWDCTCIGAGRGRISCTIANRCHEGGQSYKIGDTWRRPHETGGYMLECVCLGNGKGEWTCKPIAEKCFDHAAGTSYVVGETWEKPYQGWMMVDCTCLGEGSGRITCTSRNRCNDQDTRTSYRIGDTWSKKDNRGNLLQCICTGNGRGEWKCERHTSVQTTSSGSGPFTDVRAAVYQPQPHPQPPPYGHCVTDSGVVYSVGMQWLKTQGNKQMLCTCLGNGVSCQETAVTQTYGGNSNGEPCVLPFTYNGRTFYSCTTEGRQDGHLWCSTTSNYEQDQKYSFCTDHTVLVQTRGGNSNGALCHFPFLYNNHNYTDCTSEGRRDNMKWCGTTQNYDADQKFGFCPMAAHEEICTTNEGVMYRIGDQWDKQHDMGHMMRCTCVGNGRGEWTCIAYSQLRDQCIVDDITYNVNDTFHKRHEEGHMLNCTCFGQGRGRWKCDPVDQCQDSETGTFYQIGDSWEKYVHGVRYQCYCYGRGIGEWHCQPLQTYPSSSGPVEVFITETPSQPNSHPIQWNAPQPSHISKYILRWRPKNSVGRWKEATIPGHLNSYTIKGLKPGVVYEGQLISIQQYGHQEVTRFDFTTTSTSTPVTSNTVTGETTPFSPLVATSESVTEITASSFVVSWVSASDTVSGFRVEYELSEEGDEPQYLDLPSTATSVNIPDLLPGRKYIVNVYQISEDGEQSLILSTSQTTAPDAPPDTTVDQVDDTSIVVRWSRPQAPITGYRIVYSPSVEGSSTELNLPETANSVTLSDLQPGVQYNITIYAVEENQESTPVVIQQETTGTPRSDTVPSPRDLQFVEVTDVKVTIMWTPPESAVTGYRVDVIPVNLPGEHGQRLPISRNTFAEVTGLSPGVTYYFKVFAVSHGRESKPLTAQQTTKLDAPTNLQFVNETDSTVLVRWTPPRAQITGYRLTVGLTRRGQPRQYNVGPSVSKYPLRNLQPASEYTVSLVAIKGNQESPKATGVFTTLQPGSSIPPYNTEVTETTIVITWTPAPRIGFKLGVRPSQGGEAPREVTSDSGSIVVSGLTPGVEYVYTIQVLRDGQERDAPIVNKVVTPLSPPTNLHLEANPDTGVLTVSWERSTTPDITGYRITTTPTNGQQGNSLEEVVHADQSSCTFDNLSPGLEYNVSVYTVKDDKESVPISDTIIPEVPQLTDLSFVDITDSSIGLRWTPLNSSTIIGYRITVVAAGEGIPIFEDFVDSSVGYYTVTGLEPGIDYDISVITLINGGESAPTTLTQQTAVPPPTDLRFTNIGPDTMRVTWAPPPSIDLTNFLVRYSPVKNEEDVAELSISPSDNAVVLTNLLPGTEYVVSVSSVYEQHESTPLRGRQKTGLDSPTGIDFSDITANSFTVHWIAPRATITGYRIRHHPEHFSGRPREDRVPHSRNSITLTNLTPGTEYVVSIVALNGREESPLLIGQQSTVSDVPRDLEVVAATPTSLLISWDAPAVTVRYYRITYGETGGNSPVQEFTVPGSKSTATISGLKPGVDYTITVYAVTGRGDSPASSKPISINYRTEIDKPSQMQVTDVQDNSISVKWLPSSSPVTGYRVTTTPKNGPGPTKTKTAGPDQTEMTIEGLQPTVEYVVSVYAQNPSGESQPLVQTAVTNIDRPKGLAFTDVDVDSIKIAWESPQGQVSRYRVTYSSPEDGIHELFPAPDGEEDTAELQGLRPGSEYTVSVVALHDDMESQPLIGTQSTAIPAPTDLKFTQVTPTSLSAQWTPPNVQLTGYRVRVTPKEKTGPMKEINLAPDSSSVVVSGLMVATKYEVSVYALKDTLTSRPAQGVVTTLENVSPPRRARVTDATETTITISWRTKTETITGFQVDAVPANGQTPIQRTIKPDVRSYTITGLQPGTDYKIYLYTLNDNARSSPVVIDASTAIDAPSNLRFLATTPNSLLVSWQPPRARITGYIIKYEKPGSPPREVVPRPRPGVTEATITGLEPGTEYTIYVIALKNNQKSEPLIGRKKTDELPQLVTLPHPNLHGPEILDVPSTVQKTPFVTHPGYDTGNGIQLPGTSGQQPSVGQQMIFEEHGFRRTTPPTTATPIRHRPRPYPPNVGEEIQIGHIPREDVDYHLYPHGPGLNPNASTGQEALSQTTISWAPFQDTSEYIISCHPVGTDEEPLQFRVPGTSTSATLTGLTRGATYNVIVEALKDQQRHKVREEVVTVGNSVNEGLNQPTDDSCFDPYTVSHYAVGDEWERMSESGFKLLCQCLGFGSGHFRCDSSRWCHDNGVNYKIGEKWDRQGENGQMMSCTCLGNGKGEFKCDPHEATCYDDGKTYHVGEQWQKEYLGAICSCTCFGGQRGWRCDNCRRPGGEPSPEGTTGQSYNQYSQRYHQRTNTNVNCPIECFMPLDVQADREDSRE
UniProt O95925, residues 22-133: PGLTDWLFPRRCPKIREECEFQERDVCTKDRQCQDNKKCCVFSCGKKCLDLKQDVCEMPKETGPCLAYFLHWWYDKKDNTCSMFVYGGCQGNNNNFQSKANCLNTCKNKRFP

Target: fibronectin (Fn) of human spermatozoa (human (endogenous in spermatozoa)) (UniProt P02751)
Assay: co-IP; 500 µg spermatozoa lysate in RIPA buffer, mouse Fn antibody and protein A/G Plus-agarose beads at 4°C, blot with rabbit Eppin antibody

binding: binds
Substance: Eppin of human spermatozoa (from UniProt O95925 22-133)
